Molecules are shown by their SMILES. Some of the results follow. Further columns of the screen follow, without active or inactive calls. The list favours compounds with an active or inconclusive main result. Words in brackets tell the shape of the fitted curve; partial curves, single points and poor fits give uncertain potencies.

The values below come from PubChem BioAssay AID2685 (National Center for Advancing Translational Sciences (NCATS), 2010).

The assay in a line: qHTS Assay for Lipid Storage Modulators in Drosophila S3 Cells.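 As to cell number change: cells counted by Cell Tracker Red CMTPX staining in the red channel.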 The settings on record: BODIPY lipid droplet fluorescence, 18-24 h; for cell number change: measured here: cell count max response, cells fed with added oleic acid. Summed up: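 Drosophila S3 cells got compounds at several concentrations plus oleic acid (400 uM solution). Laser-scanning cytometry with 488 nm excitation read lipid droplets at 500-530 nm and cells at 575-640 nm. Percent activity was relative to 20 uM Triacsin C.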

Where [1] appears, read: measured here: lipid fluorescence (Fed channel) AC50, cells fed with added oleic acid.
The mark [2] stands for this setting: measured here: cell number channel AC50, cells fed with added oleic acid.

Regarding `Clc1cc(Br)ccc1OCCOCCN1CCCC1`, the cell number change was 5.25%. Besides, under setting [1], the concentration at half-maximal activity (AC50) was 29.1 µM [rising, single point].
Consider `Cc1ccccc1/C=N\NC(=O)c1csnn1`, for which the cell number change was 16.7%.
In the case of `Cc1ccc(/C=N\Nc2nc3ccc(Cl)cc3[nH]2)o1`, the cell number change was 55.9%. For the same molecule, the AC50 under setting [2] is 3.26 µM [rising, full curve]. The AC50 under setting [1] was 8.2 µM [rising, partial curve].
As to `N/C(=N\OC(=O)CCCc1ccccc1)c1ccccc1Cl`, the cell number change came to 0.88%. Besides, the concentration at half-maximal activity (AC50) under setting [1] is 0.00731 µM [falling, full curve, poor fit].
For the molecule `O=C(O)c1ccccc1NC(=O)C1C2C=CC(C2)C1C(=O)O` (stereo not drawn), the cell number change is -5.74%.
In the case of `CCN1CCN(C(=S)c2ccc(OCC(=O)NCc3ccccc3)cc2)CC1`, the cell number change was -24.1%. For the same molecule, the AC50 under setting [1] was 29.1 µM [falling, single point].
`C=C(C)COc1ccc2c(CC)cc(=O)oc2c1C`: the cell number change is 2.93%. Besides, under setting [2], the half-maximal activity concentration (AC50) is 6.51 µM [rising, single point]. The AC50 under setting [1] is 29.1 µM [rising, single point].
`C=CCc1ccccc1OCCSc1nc2ccc([N+](=O)[O-])cc2s1`: the cell number change is -10.3%. Also, under setting [1], the AC50 was 13 µM [rising, partial curve].
For the molecule `O=C(NC(=S)Nc1ccccc1O)c1cccnc1`, the cell number change worked out at 7.66%. The AC50 under setting [1] is 0.82 µM [rising, full curve, poor fit].
For the molecule `CCOC(=O)C1CCCN(C2CC(=O)N(c3ccc(C)cc3)C2=O)C1` (stereo not drawn), the cell number change was 1.32%.
Take `COc1cc(C(=O)NCCc2ccccc2)ccc1OCC(=O)N1CCOCC1`: the cell number change is -5.44%. Further, the concentration at half-maximal activity (AC50) under setting [1] is 0.411 µM [falling, partial curve, poor fit].
As for `CC(=O)c1ccc(Cc2ccc(C(C)=O)cc2)cc1`, the cell number change turned out to be 57.1%. The AC50 under setting [1] is 0.116 µM [rising, full curve, poor fit].
Regarding `Cc1cc(=O)[nH]c(SCC(=O)Nc2nc(-c3ccccc3)c(-c3ccccc3)o2)n1`, the cell number change is -9.11%.
Still for that read-out and setting: the same measure for `O=C(O)c1ccc(S(=O)(=O)N2CCC(n3nnc4cc(C(F)(F)F)ccc43)CC2)cc1`: 2.56%.
`O=C1CCC(C(=O)N2CCCC(C(=O)c3ccc4ccccc4c3)C2)=NN1` (stereo not drawn): the cell number change was -5.87%. Besides, under setting [1], the AC50 was 29.1 µM [falling, partial curve, poor fit].
In the case of `O=C(Nc1ncc2c(n1)-c1ccccc1CC2)c1cccs1`, the cell number change was determined as 0.913%. In addition, the AC50 under setting [2] is 6.51 µM [rising, partial curve, poor fit].
For the molecule `COc1ccc(-c2nc(C#N)c(N3CCCCCC3)o2)cc1OC`, the cell number change worked out at 1.7%.
Consider `O=C(NNC(=S)NCC1CCCO1)c1cccc(S(=O)(=O)N2CCOCC2)c1` (stereo not drawn), for which the cell number change was -32.7%. Also, the AC50 under setting [2] is 2.06 µM [falling, full curve]. The AC50 under setting [1] is 2.31 µM [falling, full curve].
Consider `Cc1sc(NC(=O)CSc2nnc(CCNC(=O)c3cccs3)n2C)nc1-c1ccccc1`, for which the cell number change was -43%. For the same molecule, the half-maximal activity concentration (AC50) under setting [2] was 9.2 µM [falling, partial curve]. The concentration at half-maximal activity (AC50) under setting [1] was 10.3 µM [falling, partial curve].
In the case of `O=C(Nc1cccc(S(=O)(=O)N2CCCCC2)c1)C1CC(=O)N(Cc2ccco2)C1` (stereo not drawn), the cell number change was 12.3%. Besides, the half-maximal activity concentration (AC50) under setting [1] is 18.4 µM [rising, single point].
As to `O=C(O)CC(NC(=O)Cc1ccccc1)c1cc([N+](=O)[O-])ccc1Cl` (stereo not drawn), the cell number change was -34.6%. For the same molecule, the AC50 under setting [1] was 13 µM [falling, partial curve].
On to `Cn1c(SCC(=O)NCc2cccs2)nnc1-c1cccs1`, for which the cell number change is -3.2%. Further, the half-maximal activity concentration (AC50) under setting [1] is 0.82 µM [falling, full curve, poor fit].
As for `CSc1ccc(CN(C)C(=O)CSCC(=O)Nc2ccc(C)cc2)cc1`, the cell number change was -18.6%. Also, the half-maximal activity concentration (AC50) under setting [1] is 5.8 µM [falling, full curve, poor fit].
Regarding `CCCCS(=O)Cc1ccccc1` (stereo not drawn), the cell number change was -11.9%. Also, the concentration at half-maximal activity (AC50) under setting [1] is 23.1 µM [falling, partial curve].
On to `Cc1ccc2c(c1)nnn2C1CCN(C(=O)C2CCCCC2)CC1`, for which the cell number change amounted to 57.5%. Besides, the AC50 under setting [2] was 23.1 µM [rising, partial curve, poor fit]. Moreover, under setting [1], the AC50 is 2.31 µM [rising, full curve, poor fit].
As to `CCn1nc(NC(=O)C(C)(C)C)c2cc3cccc(C)c3nc21`, under setting [1], the AC50 is 1.64 µM [falling, full curve, poor fit].
For the molecule `O=C(COc1ccccc1)OCc1cc(-c2ccco2)on1`, the cell number change was 7.34%. Moreover, the AC50 under setting [1] is 14.6 µM [rising, partial curve, poor fit].
Regarding `Cc1ccnc(NC(=O)CCC(=O)N(CC(=O)NC2CCCCC2)c2cccc(C)c2C)c1`, the cell number change is 8.79%. Besides, the concentration at half-maximal activity (AC50) under setting [1] was 0.92 µM [rising, full curve].
Take `O=C(CSc1nc2ccccc2n1Cc1ccccc1)N/N=C/c1ccco1`: the concentration at half-maximal activity (AC50) under setting [1] was 0.651 µM [rising, single point].
On to `Cc1ccnc2nc(C(=O)NCc3ccccc3)nn12`, for which the cell number change was 3.96%. The AC50 under setting [1] was 29.1 µM [falling, single point].
Turning to `Cc1oc(C(C)(C)C)cc1C(=O)N1CCN(c2ccc(C(F)(F)F)cn2)CC1`, the cell number change was -4.49%. The AC50 under setting [1] is 0.00461 µM [falling, full curve, poor fit].
For `O=C(CCCN1C(=O)S/C(=C/C=C/c2ccccc2)C1=O)Nc1ccc(C(=O)O)cc1`, the cell number change was -18.9%. The concentration at half-maximal activity (AC50) under setting [1] is 29.1 µM [falling, single point].
For `CCOC(=O)c1sc(-c2cccs2)nc1C`, the cell number change is -3.75%. Besides, the AC50 under setting [2] was 0.116 µM [falling, full curve, poor fit]. The half-maximal activity concentration (AC50) under setting [1] is 0.164 µM [falling, full curve, poor fit].
Turning to `CN(C)c1ccc(C(=O)Nc2nnc(-c3ccc(Cl)cc3)o2)cc1`, the cell number change was -27.2%. Also, the AC50 under setting [1] is 29.1 µM [falling, single point].
On to `Cc1ccc2oc3c(c(=O)c2c1)C(c1cccc(Br)c1)N(Cc1ccco1)C3=O` (stereo not drawn), for which the cell number change came out at 14.5%. For the same molecule, the AC50 under setting [1] is 0.517 µM [rising, full curve, poor fit].
In the case of `COc1ccc(C)cc1NC(=O)C(OC(=O)CNC(=O)c1ccc(Oc2ccccc2)cc1)c1ccccc1` (stereo not drawn), the cell number change was 4.4%.
Consider `CN(C)CC(=O)Nc1nc(-c2ccccc2)cs1`, for which the cell number change turned out to be 8.98%. The AC50 under setting [1] is 0.651 µM [falling, partial curve, poor fit].
`C=CCc1ccccc1OCC(O)CN1CCN(c2ccccc2OC)CC1` (stereo not drawn): the cell number change is -43.8%. Also, under setting [2], the AC50 is 16.4 µM [falling, partial curve]. In addition, under setting [1], the AC50 was 16.4 µM [falling, single point].
As to `O=C1C(=O)N(Cc2ccccc2)C(c2cccc(O)c2)/C1=C(\O)c1ccc2c(c1)OCCO2` (stereo not drawn), the cell number change amounted to 14.5%. In addition, under setting [1], the AC50 was 0.206 µM [falling, full curve].
Regarding `N#Cc1ccccc1OCC(=O)Nc1nnc(C2CC2)s1`, the cell number change was -13.5%. Besides, the AC50 under setting [1] is 0.103 µM [rising, full curve, poor fit].
`Cc1cccc(OCC(=O)NNC(=O)c2ccccc2OCc2c(C)noc2C)c1`: the cell number change came to 8.58%. Besides, under setting [2], the half-maximal activity concentration (AC50) is 6.51 µM [rising, single point]. For the same molecule, the AC50 under setting [1] was 0.92 µM [rising, partial curve].
Take `N#C/C(=C\Nc1ccc2c(c1)OCCO2)c1nc2ccccc2[nH]1`: the cell number change is -2.28%. In addition, under setting [2], the AC50 was 1.64 µM [falling, partial curve]. Moreover, the AC50 under setting [1] is 5.8 µM [falling, partial curve].
With `CCOc1ccc(C(=O)Nc2cc(C)c3c(=O)oc4ccccc4c3n2)cc1`, the cell number change turned out to be 7.36%.
`O=C(CSc1nnc(Nc2ccccc2F)s1)c1cc2ccccc2o1`: the cell number change was -63.8%. Besides, the half-maximal activity concentration (AC50) under setting [2] was 14.6 µM [falling, partial curve]. Further, the AC50 under setting [1] is 8.2 µM [falling, partial curve].
In the case of `COc1ccc(OC)c(Cc2nnc(CCC(=O)NCc3nc4ccccc4s3)o2)c1`, the cell number change was -29.7%. Under setting [1], the AC50 was 18.4 µM [falling, partial curve, poor fit].
As to `Cc1cc(S(=O)(=O)N2CCCC(N3CCOCC3)C2)c(C)cc1Cl` (stereo not drawn), the cell number change turned out to be 10.3%. Under setting [1], the AC50 was 25.9 µM [rising, single point].
Turning to `O=C(N/N=C/c1cccc(Oc2ccccc2)c1)c1ccncc1`, the AC50 under setting [1] was 29.1 µM [rising, single point].
As for `COc1ccc(Br)cc1-c1nc(CCl)cs1`, the cell number change worked out at 41.2%.
Take `C[C@@H](C(=O)NCC1CC1)[C@@H]1C[C@@]1(C)[C@@H](NC(=O)OCc1ccccc1)c1ccccc1`: the cell number change is 26.6%. For the same molecule, the AC50 under setting [1] is 29.1 µM [rising, single point].
In the case of `COCCN1C(=O)c2ccccc2C(C(=O)NCCN(C)C)C1c1ccc(F)cc1` (stereo not drawn), the cell number change was -29.3%. The AC50 under setting [2] is 0.259 µM [falling, full curve, poor fit]. Moreover, under setting [1], the AC50 was 0.411 µM [falling, full curve].
`Cc1cc(-c2nnc(CSc3nnc(NC(=O)c4ccc(C(C)(C)C)cc4)s3)o2)ccc1[N+](=O)[O-]`: the cell number change is -0.32%. Besides, the AC50 under setting [2] is 4.11 µM [rising, single point]. Further, under setting [1], the AC50 is 6.51 µM [rising, single point].
On to `CCOc1cc(/C=N/NC(=O)c2ccccn2)ccc1OC(=O)c1cccs1`, for which the cell number change was -37.6%. Also, the half-maximal activity concentration (AC50) under setting [2] was 2.06 µM [falling, partial curve]. Also, the concentration at half-maximal activity (AC50) under setting [1] was 0.58 µM [rising, single point].
For `COC(=O)c1sc(S(=O)(=O)N2CCN(CCO)CC2)c(C(=O)OC)c1C`, the cell number change was -26.5%. For the same molecule, the concentration at half-maximal activity (AC50) under setting [2] was 0.259 µM [falling, full curve, poor fit]. The half-maximal activity concentration (AC50) under setting [1] was 29.1 µM [falling, single point].
As to `CS(=O)(=O)N(CC(=O)N1CCN(C(c2ccccc2)c2ccccc2)CC1)C1CCCCC1`, the concentration at half-maximal activity (AC50) under setting [1] is 0.411 µM [falling, partial curve, poor fit].
Take `Nc1nc(-c2ccc(Oc3ccccc3)cc2)cs1`: the cell number change is -30.7%. In addition, the concentration at half-maximal activity (AC50) under setting [2] is 14.6 µM [falling, single point]. The AC50 under setting [1] is 29.1 µM [falling, single point].
For the molecule `Cc1ccc(C(=O)C2CCN(CC(=O)Nc3ccccc3C)CC2)cc1`, the cell number change turned out to be 20.5%. Under setting [1], the AC50 was 29.1 µM [rising, single point].
Consider `CCc1c(C)nc2[nH]nc(-c3ccccc3)n2c1=O`, for which the cell number change is 8.79%.
For the molecule `COc1cc(OC)c(NC(=O)c2ccc(F)cc2)cc1Cl`, the cell number change was 53.9%. For the same molecule, the AC50 under setting [2] was 5.8 µM [rising, partial curve, poor fit]. Further, the concentration at half-maximal activity (AC50) under setting [1] is 5.8 µM [rising, partial curve, poor fit].
